# Patent US20100093633A1, “POLYPEPTIDES HAVING ANTIMICROBIAL ACTIVITY” (Novozymes A/S, priority 2008, published 2010)
# Some of these results come from one statement about several compounds together. Some compounds share one range, which may span the group rather than tell each member. Where a SMILES comes first, the peptide text is derived from it. Bridges are numbered along the chain shown (N, C = ends).
# System: staphylococci and enterococci
# Assay: MIC comparison with reference defensins, panel of gram-positive bacteria
# Format: cell-based
# Conditions: against staphylococci and enterococci
row,SMILES,"improvement of MIC compared to the reference defensins D, E and F"
1,"CC[C@H](C)[C@@H]1NC(=O)[C@H](CO)NC(=O)[C@H](CCCCN)NC(=O)[C@@H]2CSSC[C@@H](C(=O)N[C@@H](Cc3ccc(O)cc3)C(=O)O)NC(=O)[C@H](CCCCN)NC(=O)[C@@H]3CSSC[C@H](NC(=O)[C@H](CCCNC(=N)N)NC(=O)[C@H](CC(C)C)NC(=O)[C@H](CC(=O)O)NC(=O)[C@H](CC(=O)O)NC(=O)[C@H](CCC(=O)O)NC(=O)[C@H](CO)NC(=O)[C@H](Cc4c[nH]c5ccccc45)NC(=O)[C@@H]4CCCN4C(=O)CNC(=O)[C@H](CC(N)=O)NC(=O)[C@@H](NC(=O)CNC(=O)[C@H](Cc4ccccc4)NC(=O)CN)CSSC[C@H](NC(=O)[C@H](Cc4ccc(O)cc4)NC(=O)CNC(=O)CNC(=O)[C@H](CCCNC(=N)N)NC(=O)[C@H](Cc4ccc(O)cc4)NC(=O)CNC(=O)[C@H](CCCCN)NC1=O)C(=O)N[C@@H](C)C(=O)N[C@@H](CCCCN)C(=O)NCC(=O)NCC(=O)N[C@@H](Cc1ccccc1)C(=O)N[C@@H](C(C)C)C(=O)N3)C(=O)N[C@@H](Cc1c[nH]cn1)C(=O)N[C@@H](CCCNC(=N)N)C(=O)N[C@@H](Cc1c[nH]cn1)C(=O)N2 [A] (H-GFGCNGPWSEDDLRCHRHCKSIKGYRGGYCAKGGFVCKCY-OH; disulfide 4-30, 15-37, 19-39 (inferred); N-terminus and C-terminus assumed)",2 to 8 fold
2,"CC[C@H](C)[C@@H]1NC(=O)[C@H](CO)NC(=O)[C@H](CCCCN)NC(=O)[C@@H]2CSSC[C@@H](C(=O)N[C@@H](Cc3ccc(O)cc3)C(=O)O)NC(=O)[C@H](CCCCN)NC(=O)[C@@H]3CSSC[C@H](NC(=O)[C@H](CCCCN)NC(=O)[C@H](CC(C)C)NC(=O)[C@H](CC(=O)O)NC(=O)[C@H](CC(=O)O)NC(=O)[C@H](CCC(=O)O)NC(=O)[C@H](CO)NC(=O)[C@H](Cc4c[nH]c5ccccc45)NC(=O)[C@@H]4CCCN4C(=O)CNC(=O)[C@H](CC(N)=O)NC(=O)[C@@H](NC(=O)CNC(=O)[C@H](Cc4ccccc4)NC(=O)CN)CSSC[C@H](NC(=O)[C@H](Cc4ccc(O)cc4)NC(=O)CNC(=O)CNC(=O)[C@H](CCCCN)NC(=O)[C@H](Cc4ccc(O)cc4)NC(=O)CNC(=O)[C@H](CCCCN)NC1=O)C(=O)N[C@@H](C)C(=O)N[C@@H](CCCCN)C(=O)NCC(=O)NCC(=O)N[C@@H](Cc1ccccc1)C(=O)N[C@@H](CC(C)C)C(=O)N3)C(=O)N[C@@H](Cc1c[nH]cn1)C(=O)N[C@@H](CC(N)=O)C(=O)N[C@@H](Cc1c[nH]cn1)C(=O)N2 [B] (H-GFGCNGPWSEDDLKCHNHCKSIKGYKGGYCAKGGFLCKCY-OH; disulfide 4-30, 15-37, 19-39 (inferred); N-terminus and C-terminus assumed)",2 to 8 fold
3,"CC[C@H](C)[C@@H]1NC(=O)[C@H](CO)NC(=O)[C@H](CCCCN)NC(=O)[C@@H]2CSSC[C@@H](C(=O)N[C@@H](Cc3ccc(O)cc3)C(=O)O)NC(=O)[C@H](CCCCN)NC(=O)[C@@H]3CSSC[C@H](NC(=O)[C@H](CCCCN)NC(=O)[C@H](CC(C)C)NC(=O)[C@H](CC(=O)O)NC(=O)[C@H](CC(=O)O)NC(=O)[C@H](CCC(=O)O)NC(=O)[C@H](CO)NC(=O)[C@H](Cc4c[nH]c5ccccc45)NC(=O)[C@@H]4CCCN4C(=O)CNC(=O)[C@H](CC(N)=O)NC(=O)[C@@H](NC(=O)CNC(=O)[C@H](Cc4ccccc4)NC(=O)CN)CSSC[C@H](NC(=O)[C@H](Cc4ccc(O)cc4)NC(=O)CNC(=O)CNC(=O)[C@H](CCCCN)NC(=O)[C@H](Cc4ccc(O)cc4)NC(=O)CNC(=O)[C@H](CCCCN)NC1=O)C(=O)N[C@@H](C)C(=O)N[C@@H](CCCCN)C(=O)NCC(=O)NCC(=O)N[C@@H](Cc1ccccc1)C(=O)N[C@@H](CC(C)C)C(=O)N3)C(=O)N[C@@H](Cc1c[nH]cn1)C(=O)N[C@@H](CCCNC(=N)N)C(=O)N[C@@H](Cc1c[nH]cn1)C(=O)N2 [C] (H-GFGCNGPWSEDDLKCHRHCKSIKGYKGGYCAKGGFLCKCY-OH; disulfide 4-30, 15-37, 19-39 (inferred); N-terminus and C-terminus assumed)",2 to 8 fold
